PubChem BioAssay AID493246 – Drosophila RNAi Screening Center – 2011

Assay: 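Genome-wide search for dsRNAs that reduce cell number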 (primary screen)
Cells: Drosophila Kc and S2R+ cells
Knock-down reagent: long dsRNA against Drosophila genes
Detection: 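Cell number per well after knock-down, printed as raw plate values; calls were based on per-plate z-scores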
Scale: Kc cell number and S2R+ cell number: higher = more cells remaining
Hit rule: 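Counted as a hit if cell number falls by a z-score of at least 3 within its plate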
The deposit covers about 21,000 reagents; shown is a random part of those with a known target gene and a result. Of all reagents, 429 (2%) were called active. 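Values are raw and not normalised between plates; calls rest on per-plate z-scores that were not deposited.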 The numbers tell different reagents against one gene apart. Reagent sequences are not shown. The record does not give: the amount of reagent, the time to read-out.

no.	gene knocked down	reagent no.	Kc cell number, rep 1	Kc cell number, rep 2	S2R+ cell number, rep 1	S2R+ cell number, rep 2	call
1	ecd	1	1.40e6	1.41e6	1.23e6	1.29e6	inactive
2	Phf5a	1	1.50e6	1.33e6	8.93e5	1.02e6	inactive
3	REG	1	1.47e6	1.46e6	1.02e6	1.09e6	inactive
4	btv	1	1.65e6	1.64e6	1.02e6	1.24e6	inactive
5	btv	2	1.54e6	1.61e6	1.29e6	1.43e6	inactive
6	Cul1	1	1.35e6	1.39e6	9.42e5	1.01e6	inactive
7	jar	1	1.44e6	1.49e6	1.02e6	1.14e6	inactive
8	Alp7	1	1.36e6	1.59e6	1.25e6	4.50e5	inactive

Ordered by “Kc cell number, rep 1” (high to low): 4 of the entries above
gene knocked down	reagent no.	Kc cell number, rep 1	Kc cell number, rep 2	S2R+ cell number, rep 1	S2R+ cell number, rep 2	call
btv	2	1.54e6	1.61e6	1.29e6	1.43e6	inactive
jar	1	1.44e6	1.49e6	1.02e6	1.14e6	inactive
Alp7	1	1.36e6	1.59e6	1.25e6	4.50e5	inactive
Cul1	1	1.35e6	1.39e6	9.42e5	1.01e6	inactive

The listing continues.
no.	gene knocked down	reagent no.	Kc cell number, rep 1	Kc cell number, rep 2	S2R+ cell number, rep 1	S2R+ cell number, rep 2	call
9	CG8157	1	1.82e6	1.95e6	1.52e6	1.65e6	inactive
10	CG7115	1	1.56e6	1.53e6	1.09e6	1.20e6	inactive
11	CG18233	1	1.40e6	1.54e6	1.33e6	1.41e6	inactive
12	CG7882	1	1.56e6	1.57e6	1.25e6	1.33e6	inactive
13	CG5892	1	1.36e6	1.38e6	1.00e6	9.63e5	inactive
14	Vps52	1	1.47e6	1.35e6	1.10e6	1.30e6	inactive
15	CG5721	1	1.27e6	1.33e6	1.15e6	1.20e6	inactive
16	CG33269	1	1.21e6	1.22e6	1.11e6	1.17e6	inactive
17	CG10912	1	1.43e6	1.39e6	1.10e6	1.15e6	inactive
18	obst-G	1	1.37e6	1.41e6	1.15e6	1.28e6	inactive
19	ple	1	1.55e6	1.54e6	7.94e5	9.11e5	inactive
20	Nadk2	1	1.38e6	1.44e6	1.29e6	1.35e6	inactive
21	Cyp28c1	1	1.47e6	1.45e6	1.03e6	1.10e6	inactive
22	dmrt99B	1	1.28e6	1.30e6	5.51e5	6.04e5	active
23	CG14258	1	1.42e6	1.47e6	9.82e5	1.07e6	inactive
24	GATAd	1	1.40e6	1.44e6	1.20e6	1.34e6	inactive
